Laboratory results: patent US20040209860A1, “Biphenyl derivatives having beta2 adrenergic receptor agonist and muscarinic receptor antagonist activity” (priority 2003, published 2004)
Some entries share one result that the patent states for a list of compounds.

Columns and labels:
[1] = tested on: ACh-induced bronchoconstriction; experiment: Guinea pig model of acetylcholine-induced bronchoconstriction; format: in vivo; conditions: inhalation, 1.5 hours post-dose
[2] = tested on: His-induced bronchoconstriction; experiment: Guinea pig model of histamine-induced bronchoconstriction; format: in vivo; conditions: inhalation, 1.5 hours post-dose

With `O=C(Nc1ccccc1-c1ccccc1)OC1CCN(CCCCCCCCCNC[C@H](O)c2ccc(O)c3[nH]c(=O)ccc23)CC1.O=C(O)C(F)(F)F.O=C(O)C(F)(F)F` [Example 3, Biphenyl-2-ylcarbamic Acid 1-{9-[(R)-2-hydroxy-2-(8-hydroxy-2-oxo-1,2-dihydro-quinolin-5-yl)ethylamino]nonyl}piperidin4-yl Ester Ditrifluoroacetate] the “ID50 for ACh-induced bronchoconstriction” value [1] was “less than 100 μg/mL” and the “ID50 for His-induced bronchoconstriction” value [2] was “less than 100 μg/mL”.
